Results from patent US20240294544A1, “NEW SUBSTITUTED PYRIDINES AS FUNGICIDES” (BASF SE, priority 2021, published 2024).
Some results were stated once for a whole list of compounds, not compound by compound.

Key:
Botrytis cinerea [1] = assay: Example 19: long lasting control of Botrytis cinerea on leaves of green pepper (green house); type: in vivo; details: 250 ppm, sprayed 7 days before inoculation; assessed after 5 days; untreated plants 90% infected
Botrytis cinerea [2] = assay: Example 3: activity against the grey mold Botrytis cinerea in the microtiterplate test; type: cell-based; details: 31 ppm active substance; relative to compound-free control (100%)
Microdochium nivale = assay: Example 6: activity against Microdochium nivale in the microtiterplate test; type: cell-based; details: 31 ppm active substance; DOB media (ph 7); relative to compound-free control (100%)
Monilinia laxa = assay: Example 10: activity against Monilinia laxa in the microtiterplate test; type: cell-based; details: 31 ppm active substance; DOB media (ph 7); relative to compound-free control (100%)
[3] = test system: Colletotrichum orbiculare; assay: Example 7: activity against Colletotrichum orbiculare in the microtiterplate test; type: cell-based; details: 31 ppm active substance; DOB media (ph 7); relative to compound-free control (100%)
Corynespora cassiicola = assay: Example 14: activity against Corynespora cassiicola in the microtiterplate test; type: cell-based; details: 31 ppm active substance; DOB media (ph 7); relative to compound-free control (100%)
Leptosphaeria maculans = assay: Example 13: activity against Leptosphaeria maculans in the microtiterplate test; type: cell-based; details: 31 ppm active substance; DOB media (ph 7); relative to compound-free control (100%)
Sclerotinia sclerotiorum = assay: Example 17: preventative fungicidal control of white mold on oilseed rape caused by Sclerotinia sclerotiorum (green house); type: in vivo; details: 100 g/ha, sprayed one day before inoculation; assessed after 14 days; untreated plants 100% infected
Leptosphaeria nodorum = assay: Example 8: activity against Leptosphaeria nodorum in the microtiterplate test; type: cell-based; details: 31 ppm active substance; DOB media (ph 7); relative to compound-free control (100%)
Botrytis cinerea [4] = assay: Example 18: preventative fungicidal control of Botrytis cinerea on leaves of green pepper (green house); type: in vivo; details: 250 ppm, sprayed one day before inoculation; assessed after 5 days; untreated plants 100% infected
Septoria tritici = assay: Example 5: activity against the leaf blotch on wheat caused by Septoria tritici in the microtiterplate test; type: cell-based; details: 31 ppm active substance; relative to compound-free control (100%)

With `Cc1cc(C2=NC(C)(C(C)(C)C)Oc3ccccc32)cnc1C` (stereo not shown) [Ex-2] the “growth of the pathogen (visually assessed as % diseased leaf area)” value (Botrytis cinerea [1]) was “at most 15%” and the “growth of the pathogen” value (Botrytis cinerea [2]) was at most 11%.

For `Cc1cc(C2=NC3(CCCC3C(C)C)Oc3ccccc32)cnc1C` (stereo not shown) [Ex-10], the “growth of the pathogen” value (Botrytis cinerea [2]) was at most 11%.

With `Cc1cc(C2=NC3(CCC3)Oc3ccccc32)cnc1C(F)F` [Ex-25, 4-[6-(difluoromethyl)-5-methyl-3-pyridyl]spiro[1,3-benzoxazine-2,1′-cyclobutane]] the “growth of the pathogen” value (Microdochium nivale) was at most 18%, the “growth of the pathogen” value (Monilinia laxa) was at most 16% and the “growth of the pathogen” value [3] was at most 17%. For the same molecule, the “growth of the pathogen” value (Corynespora cassiicola) was at most 19%, the “growth of the pathogen” value (Botrytis cinerea [2]) was at most 11% and the “growth of the pathogen” value (Leptosphaeria maculans) was at most 10%. For the same molecule, the “growth of the pathogen (visually assessed as % diseased leaf area)” value (Sclerotinia sclerotiorum) was “at most 10%” and the “growth of the pathogen” value (Leptosphaeria nodorum) was at most 19%.

For `Cc1cc(C2=NC(C)(c3ccc(Cl)cc3)Oc3ccccc32)cnc1C(F)F` (stereo not shown) [Ex-51], the “growth of the pathogen” value (Microdochium nivale) was at most 18%, the “growth of the pathogen” value (Monilinia laxa) was at most 16% and the “growth of the pathogen” value [3] was at most 17%. For the same molecule, the “growth of the pathogen” value (Corynespora cassiicola) was at most 19%, the “growth of the pathogen” value (Botrytis cinerea [2]) was at most 11% and the “growth of the pathogen (visually assessed as % diseased leaf area)” value (Botrytis cinerea [4]) was “at most 15%”. For the same molecule, the “growth of the pathogen” value (Leptosphaeria maculans) was at most 10% and the “growth of the pathogen” value (Leptosphaeria nodorum) was at most 19%.

In the case of `Cc1cc(C2=NC(C)(Cc3ccc(F)cc3)Oc3ccccc32)cnc1C(F)F` (stereo not shown) [Ex-58], the “growth of the pathogen” value (Microdochium nivale) is reported as at most 18%, the “growth of the pathogen” value (Monilinia laxa) is reported as at most 16% and the “growth of the pathogen” value [3] is reported as at most 17%. The “growth of the pathogen” value (Corynespora cassiicola) was at most 19%, the “growth of the pathogen” value (Botrytis cinerea [2]) was at most 11% and the “growth of the pathogen (visually assessed as % diseased leaf area)” value (Botrytis cinerea [4]) was “at most 15%”. For the same molecule, the “growth of the pathogen” value (Leptosphaeria maculans) was at most 10% and the “growth of the pathogen” value (Leptosphaeria nodorum) was at most 19%.

In the case of `Cc1cc(C2=NC(C3CC3)Oc3ccccc32)cnc1C(F)F` (stereo not shown) [Ex-61], the “growth of the pathogen” value (Microdochium nivale) is reported as at most 18%, the “growth of the pathogen” value (Botrytis cinerea [2]) is reported as at most 11% and the “growth of the pathogen” value (Leptosphaeria maculans) is reported as at most 10%. For the same molecule, the “growth of the pathogen” value (Leptosphaeria nodorum) was at most 19%.

For `CCC1CC2(C1)N=C(c1cnc(C(F)F)c(C)c1)c1ccccc1O2` (stereo not shown) [Ex-71], the “growth of the pathogen” value (Botrytis cinerea [2]) was at most 11%.

`Cc1cc(C2=NC3(CCC3C)Oc3ccccc32)cnc1C(F)F` (stereo not shown) [Ex-72] was tested, and the “growth of the pathogen” value (Botrytis cinerea [2]) was at most 11% and the “growth of the pathogen” value (Septoria tritici) was at most 20%.

`Cc1cc(C2=NC(C)(C)Oc3c2ccc(C)c3C)cnc1C(F)F` [Ex-73] was tested, and the “growth of the pathogen” value (Botrytis cinerea [2]) was at most 11%, the “growth of the pathogen” value (Septoria tritici) was at most 20% and the “growth of the pathogen (visually assessed as % diseased leaf area)” value (Botrytis cinerea [4]) was “at most 15%”.

In the case of `Cc1cc(C2=NC3(CCC3C)Oc3cc(C(F)(F)F)ccc32)cnc1C(F)F` (stereo not shown) [Ex-76], the “growth of the pathogen” value (Botrytis cinerea [2]) is reported as at most 11% and the “growth of the pathogen” value (Septoria tritici) is reported as at most 20%.

`Cc1cc(C2=NC(C)(C)Oc3c(C)cccc32)cnc1C(F)F` [Ex-77] was tested, and the “growth of the pathogen” value (Botrytis cinerea [2]) was at most 11% and the “growth of the pathogen” value (Septoria tritici) was at most 20%.

With `COc1ncc(C2=NC3(CCC3)Oc3c(F)cccc32)cc1Br` [Ex-79] the “growth of the pathogen” value (Botrytis cinerea [2]) was at most 11% and the “growth of the pathogen” value (Septoria tritici) was at most 20%.

For `Cc1ncc(C2=NC(C)(C)Oc3c(F)cccc32)cc1C(F)(F)F` [Ex-87], the “growth of the pathogen” value (Botrytis cinerea [2]) was at most 11%.

`COc1cc(C2=NC(C)(C)Oc3c(F)cccc32)cnc1OC` [Ex-88] was tested, and the “growth of the pathogen” value (Botrytis cinerea [2]) was at most 11%.

With `Cc1cc(C2=NC(C)(C)Oc3c(F)cccc32)cnc1C(F)(F)F` [Ex-89] the “growth of the pathogen” value (Botrytis cinerea [2]) was at most 11%.
